Construct, isoform or probe ends are uncertain for at least one entry. For part of these data: Weaker means in comparison with the reference protein, sequence or condition of that experiment. For part of these data: Where a protein sequence is shown, tags need not be part of it. For part of these data: Results from cells or extracts need not show a direct contact. For part of these data: A negative result means that nothing was seen under these conditions. For part of these data: At least one verdict rests on a figure or table, not on a statement of the authors.
Key:
[1] = target: T1, GST-TAp73α (UniProt O15350); experiment: fluorescence polarization; settings: TAp73 first, then p53 titrated, GST-XIAP had no effect; FP: 4 nM FAM duplex, 100 mM NaCl, 10 mM Tris-HCl pH 7.5, 10% glycerol, 5 mM DTT, 0.2 mg/mL BSA, room temperature; commercial protein; protein details: GST; label: 5' 6-FAM on strand 1
T1 sequence (looked up, limits assumed): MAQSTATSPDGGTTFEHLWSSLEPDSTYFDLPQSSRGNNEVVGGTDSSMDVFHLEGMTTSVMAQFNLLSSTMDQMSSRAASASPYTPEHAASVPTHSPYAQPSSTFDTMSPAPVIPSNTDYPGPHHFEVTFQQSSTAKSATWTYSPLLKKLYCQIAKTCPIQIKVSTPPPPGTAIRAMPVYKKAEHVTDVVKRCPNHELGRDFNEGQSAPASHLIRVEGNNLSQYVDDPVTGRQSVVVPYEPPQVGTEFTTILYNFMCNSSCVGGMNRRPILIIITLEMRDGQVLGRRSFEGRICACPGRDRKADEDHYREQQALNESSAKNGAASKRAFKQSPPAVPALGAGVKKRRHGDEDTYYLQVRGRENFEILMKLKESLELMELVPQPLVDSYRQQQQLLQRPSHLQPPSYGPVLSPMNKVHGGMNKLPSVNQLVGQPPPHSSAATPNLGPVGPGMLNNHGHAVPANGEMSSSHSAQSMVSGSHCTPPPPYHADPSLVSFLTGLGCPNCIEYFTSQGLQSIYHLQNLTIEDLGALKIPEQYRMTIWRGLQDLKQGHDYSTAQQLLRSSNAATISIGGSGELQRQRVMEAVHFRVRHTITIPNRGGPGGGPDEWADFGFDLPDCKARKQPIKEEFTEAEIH

[2] = target: GST-p53 (UniProt P04637); experiment: fluorescence polarization; settings: p53 to saturation, then GST-TAp73 titrated, GST-XIAP had no effect; FP: 4 nM FAM duplex, 100 mM NaCl, 10 mM Tris-HCl pH 7.5, 10% glycerol, 5 mM DTT, 0.2 mg/mL BSA, room temperature; commercial protein; protein details: GST; label: 5' 6-FAM on strand 1
[3] = target: T2, HA-TAp73α (transfected, p53-KO HCT116 lysate) (UniProt O15350); experiment: pull-down; settings: pull-down: 2 ug duplex with lysate, 90 min room temperature, then streptavidin beads 2 h 4 C, protein in a lysate after overexpression, protein details: HA, label: 5' biotin
T2 sequence (looked up, limits assumed): T1 sequence (looked up, limits assumed)

[4] = target: p53 (transfected, p53-KO HCT116 lysate) (UniProt P04637); experiment: pull-down; settings: pull-down: 2 ug duplex with lysate, 90 min room temperature, then streptavidin beads 2 h 4 C, protein in a lysate after overexpression, label: 5' biotin

Sequence	binding result [1]	binding result [2]	binding result ([3]; TAp73α expressed alone)	binding result ([3]; co-expressed with p53, binding abolished)	binding result ([4]; co-expressed with TAp73α, binding abolished)	binding result ([4]; p53 expressed alone)
CGCGCCTGCAAGTCCTGACTTGTCCGCGGC (double strand) [PUMA promoter duplex, FAM]	binds more weakly	binds more weakly	–	–	–	–
CGCGCCTGCAAGTCCTGACTTGTCCGCGGC (double strand) [PUMA promoter duplex, biotin]	–	–	binds	no binding	no binding	binds

— publication PMC4226670
